Consider 57 compounds from PubChem BioAssay AID2685 (National Center for Advancing Translational Sciences (NCATS), 2010).

This experiment in a line: qHTS Assay for Lipid Storage Modulators in Drosophila S3 Cells.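 For cell number change: cells counted by Cell Tracker Red CMTPX staining in the red channel.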 The following applies: BODIPY lipid droplet fluorescence, 18-24 h; for cell number change: measured here: cell count max response, cells fed with added oleic acid. In outline: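 Drosophila S3 cells got compounds at several concentrations plus oleic acid (400 uM solution). Laser-scanning cytometry with 488 nm excitation read lipid droplets at 500-530 nm and cells at 575-640 nm. Percent activity was relative to 20 uM Triacsin C.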

[1] abbreviates: measured here: cell number channel AC50, cells fed with added oleic acid.
Setting [2] is: measured here: lipid fluorescence (Fed channel) AC50, cells fed with added oleic acid.

The list shows a part of the results. Shown are side measurements of this screen, not its main read-out; they come without a call. The list favours compounds with an active or inconclusive main result. Words in brackets tell the shape of the fitted curve; partial curves, single points and poor fits give uncertain potencies.

As usually defined, the AC50 is the concentration giving half of the maximal activity seen. Higher therefore signals activity only at high concentration. In the case of `CCOC(=O)c1c(C)[nH]c(C)c1C(=O)CSc1nnnn1-c1ccccc1`, the AC50 runs as follows: under setting [1], 0.58 µM [rising, full curve]; under setting [2], 1.64 µM [rising, partial curve].
On to `Cc1ccsc1-c1nc(CSCC(=O)N2CCN(c3ccccc3)CC2)c(C)o1`, for which the cell number change is -56.5%. In addition, the AC50 under setting [1] was 11.6 µM [falling, partial curve]. Moreover, under setting [2], the concentration at half-maximal activity (AC50) is 18.4 µM [falling, single point].
For `OCCN(CCO)Cc1ccc(Br)cc1`, the cell number change is -99.1%. Under setting [1], the AC50 is 25.9 µM [falling, partial curve]. For the same compound, the AC50 under setting [2] is 23.1 µM [falling, partial curve].
In the case of `CCOc1ccccc1CNC(CC)CO` (stereo not drawn), the cell number change is -37.3%. Besides, the AC50 under setting [1] was 20 µM [falling, single point].
Consider `Cc1ccccc1CNC(=O)c1ccccc1N`, for which the cell number change is -2.93%.
Regarding `CC(Sc1nnc(C2CC2)n1C)C(=O)Nc1ccc2c(c1)CCC2` (stereo not drawn), the cell number change was 12.1%. For the same compound, under setting [2], the AC50 was 0.092 µM [falling, single point].
Consider `CC1CC(C)(C)NCCNC(C)CC(C)(C)NCCN1` (stereo not drawn), for which the cell number change was 0.74%. Moreover, the AC50 under setting [2] was 0.366 µM [falling, partial curve].
`CC(NC(=O)c1ccc(Br)cc1)c1ccccc1` (stereo not drawn): the cell number change was -1.74%. Moreover, under setting [2], the AC50 was 0.461 µM [rising, full curve, poor fit].
Turning to `COc1cc(C(=S)N2CCOCC2)cc(OC)c1OC`, the cell number change was -30.6%. In addition, the AC50 under setting [1] was 0.00461 µM [falling, full curve, poor fit]. The AC50 under setting [2] is 0.731 µM [falling, full curve].
For the compound `CCc1ccc(C2CC(c3cccc(Cl)c3)n3nc(N)nc3N2)cc1` (stereo not drawn), the cell number change is -10.8%.
Same read-out and setting: next, `O=C(NNC(=O)c1cc(-c2cccnc2)nc2ccccc12)Nc1ccc(Cl)cc1`: 73.1%.
For `O=C(CSc1nnc(CNC(=O)c2c(F)cccc2Cl)o1)NCc1ccc2c(c1)OCO2`, the cell number change came to 2.7%. Besides, under setting [2], the AC50 was 18.4 µM [falling, partial curve].
`COc1ccc(-c2ccc(-c3nnc(-c4ccncc4)o3)cc2)cc1`: the cell number change amounted to 19.5%. The AC50 under setting [1] is 0.13 µM [rising, full curve, poor fit]. For the same compound, under setting [2], the AC50 is 0.82 µM [rising, full curve, poor fit].
As for `CCCOc1ccccc1C1NC(=O)NC(C)=C1C(=O)OCCOC(C)C` (stereo not drawn), the cell number change is -15.6%. In addition, the AC50 under setting [2] is 4.61 µM [rising, full curve, poor fit].
`COC(=O)c1sccc1-n1cccc1C(=O)C(=O)Nc1ccc(F)cc1`: the cell number change was -49.1%. In addition, the AC50 under setting [1] is 5.17 µM [falling, full curve, poor fit]. The AC50 under setting [2] is 5.8 µM [falling, full curve].
For the compound `O=C(COC(=O)c1cccc(N2C(=O)C3CC=CCC3C2=O)c1)c1ccccc1` (stereo not drawn), the cell number change was -27.5%. Further, the AC50 under setting [2] was 0.651 µM [rising, single point].
Regarding `COC(=O)c1ccccc1S(=O)(=O)N1CCC(C(=O)NCC2CCCO2)CC1` (stereo not drawn), the cell number change is -24.2%. For the same compound, the AC50 under setting [1] is 4.11 µM [falling, full curve, poor fit]. Besides, under setting [2], the AC50 is 4.11 µM [falling, full curve, poor fit].
As to `CCOC(=O)c1c(NC(=O)c2ccccc2)sc2c1CCc1ccccc1-2`, the cell number change was 31%. Besides, under setting [1], the AC50 is 1.46 µM [rising, full curve, poor fit].
As for `O=C(Nc1ccc(F)c(F)c1)NC1CCCCC1`, the cell number change was determined as 1.96%. In addition, the AC50 under setting [2] was 0.00651 µM [falling, full curve, poor fit].
Regarding `O=C(NCc1ccc2c(c1)OCO2)C1CCC(=O)N1C1CCCC1` (stereo not drawn), the cell number change stood at 31.1%. Moreover, the AC50 under setting [1] is 0.092 µM [rising, full curve, poor fit]. Moreover, the AC50 under setting [2] is 32.6 µM [rising, single point].
`O=C(C1CC(c2ccc(F)cc2)=NO1)N1CCN(c2ccccc2)CC1` (stereo not drawn): the cell number change was -14.4%. Further, the AC50 under setting [1] is 1.46 µM [falling, partial curve, poor fit].
On to `CC(CCc1ccccc1)NC(=O)Cn1cccc1C(=O)c1ccccc1` (stereo not drawn), for which the cell number change turned out to be 13.9%. Further, under setting [2], the AC50 is 2.59 µM [rising, full curve].
As to `CCCN1CCC(=O)N([C@H](CSc2ccc(OC)cc2)c2ccccc2)CC1`, the cell number change turned out to be 29.1%. Further, the AC50 under setting [2] is 0.517 µM [rising, full curve, poor fit].
Regarding `CCN(C(=O)COC(=O)/C=C/c1cccc(Br)c1)C1CCS(=O)(=O)C1` (stereo not drawn), the concentration at half-maximal activity (AC50) under setting [2] was 32.6 µM [rising, single point].
Take `CC(OC(=O)Cc1ccsc1)C(=O)Nc1ccc(C(N)=O)cc1` (stereo not drawn): the cell number change was -43.1%. For the same compound, under setting [1], the AC50 is 5.8 µM [falling, full curve, poor fit]. Also, the AC50 under setting [2] is 0.058 µM [falling, full curve, poor fit].
Consider `CSc1nnc(CCCCCNC(=O)OC(C)(C)C)o1`, for which the cell number change is 1.29%. Moreover, under setting [1], the AC50 is 2.91 µM [rising, single point].
On to `COc1cc(NC(=O)c2cc(=O)[nH]c3ccc(S(=O)(=O)N4CCOCC4)cc23)cc(OC)c1`, for which the cell number change was -50%. Moreover, under setting [1], the AC50 is 0.0146 µM [falling, full curve, poor fit]. In addition, the AC50 under setting [2] is 0.00517 µM [rising, full curve, poor fit].
On to `Cc1ccc(S(=O)(=O)/N=C(/Nc2ccc(F)cc2F)c2ccc(F)cc2)cc1`, for which the cell number change turned out to be 26.4%.
As to `CN1c2ccccc2N(C)C1(C)c1ccccc1`, the cell number change was -47.3%. Besides, the AC50 under setting [1] was 32.6 µM [falling, single point]. The AC50 under setting [2] was 29.1 µM [falling, single point].
As to `COc1ccc(S(=O)(=O)N2c3ccccc3OCC2C)cc1` (stereo not drawn), the cell number change was found to be 32.6%.
In the case of `COc1ccc(OC)c(C2C3=C(N=c4s/c(=C\c5cccc(O)c5)c(=O)n42)c2ccccc2CC3)c1` (stereo not drawn), the AC50 by setting is: under setting [1], 0.731 µM [rising, full curve]; under setting [2], 16.4 µM [falling, partial curve].
Turning to `CCCCn1nc(NC(=O)CC)c2cc3cc(OC)ccc3nc21`, the cell number change is -13.4%.
As to `CCCN1C(=O)/C(=C/c2c(N3CCNC(=O)C3CC(=O)OC)nc3c(C)cccn3c2=O)SC1=S` (stereo not drawn), the cell number change was -103%. For the same compound, the AC50 under setting [1] is 4.61 µM [falling, full curve]. Under setting [2], the AC50 is 2.91 µM [falling, full curve].
For the compound `CCC1CCCCN1C(=O)c1cc(COc2ccc3ncccc3c2)on1` (stereo not drawn), the cell number change is -46.2%. Besides, the AC50 under setting [1] was 8.2 µM [falling, partial curve]. Besides, the AC50 under setting [2] was 8.2 µM [falling, partial curve].
As to `CCSCCOC(=O)C1=C(C)NC(=O)NC1c1ccc2c(c1)OCO2` (stereo not drawn), the cell number change was -30%. In addition, the AC50 under setting [1] was 11.6 µM [falling, partial curve, poor fit]. Moreover, the AC50 under setting [2] was 29.1 µM [rising, single point].
`Cn1nccc1C(=O)N1CCN(c2cccc(Cl)c2)CC1`: the cell number change is -6.91%. Also, under setting [2], the AC50 was 29.1 µM [falling, single point].
With `CN(C)c1cccc(Oc2nc3c(c(=O)n(C)c(=O)n3C)n2C)c1`, the cell number change came out at 22.8%. The AC50 under setting [2] was 29.1 µM [falling, single point].
Regarding `CC1(c2ccccc2)CC(C)(C)N(C(=O)c2cc([N+](=O)[O-])cc([N+](=O)[O-])c2)c2ccccc21` (stereo not drawn), the cell number change is -30.2%. For the same compound, the AC50 under setting [2] is 29.1 µM [falling, single point].
On to `O=C(COC(=O)c1cc(NS(=O)(=O)c2cccs2)ccc1O)Nc1cc(Cl)ccc1Cl`, for which the cell number change worked out at 0.339%. Further, the AC50 under setting [2] is 0.13 µM [rising, full curve, poor fit].
For the compound `Cc1ccc(OCCNC(=O)CNC(=O)c2ccccc2Cl)cc1`, the cell number change is -3.61%. Further, the AC50 under setting [2] was 0.00411 µM [falling, full curve, poor fit].
Consider `Cc1cc(C)n(-c2ccc(C(=O)Nc3sccc3C(N)=O)cc2)n1`, for which the cell number change came out at 2.6%. In addition, the AC50 under setting [2] is 5.17 µM [falling, full curve, poor fit].
With `Cc1ccc(CNC(=O)c2ccc(N3CCCC3=O)cc2)cc1`, the cell number change turned out to be 55.1%. Besides, under setting [1], the AC50 was 5.8 µM [rising, partial curve]. For the same compound, under setting [2], the AC50 is 29.1 µM [rising, single point].
Turning to `c1cnn(Cc2cnc(N3CCOCC3)s2)c1`, the cell number change was -49.8%. Besides, the AC50 under setting [1] is 29.1 µM [falling, single point]. Further, the AC50 under setting [2] is 23.1 µM [falling, single point].
For the compound `Cc1ccc(C2=Nc3ccccc3NC(C)(c3ccc(C)o3)C2)o1` (stereo not drawn), the AC50 by setting is: under setting [1], 2.59 µM [rising, partial curve]; under setting [2], 2.06 µM [rising, partial curve].
With `COC(=O)CNC(=O)COC(=O)c1cc(SC)ccc1Cl`, the cell number change was found to be 4.15%. For the same compound, the AC50 under setting [1] was 0.731 µM [falling, single point].
In the case of `Cc1ccc(C)c(N2N=C(C(=O)NCCN3C(=O)S/C(=C\c4cccnc4)C3=O)CCC2=O)c1`, the cell number change was -30.9%. Also, the AC50 under setting [1] is 10.3 µM [falling, partial curve].
Consider `COc1ccc(NC(=O)CN2CCCC2c2cccs2)cc1S(=O)(=O)N1CCCCC1` (stereo not drawn), for which the cell number change was -1.81%. The AC50 under setting [2] is 29.1 µM [rising, single point].
`CC12CCC(=O)N1C(C(=O)NCc1ccccc1F)CS2` (stereo not drawn): under setting [2], the AC50 is 29.1 µM [rising, single point].
As for `CC1CC(C)CN(CCCNC(=O)CN2C(=O)c3cccnc3Oc3ccc(Cl)cc32)C1` (stereo not drawn), the cell number change was 12.9%. Besides, the AC50 under setting [2] was 0.103 µM [rising, single point].
With `CCOc1ccc(S(=O)(=O)N2CCC(C(=O)OCc3cccc(OC)c3OC)CC2)cc1`, the cell number change was -8.43%. Under setting [2], the AC50 is 6.51 µM [falling, single point].
As to `CC(=O)Nc1ccc2[nH]c(C)cc(=O)c2c1`, the cell number change is 24.5%.
Take `CC(C)c1ccc(NC(=S)NNc2ccc(Cl)c(C(=O)O)c2)cc1`: the cell number change was determined as 20.7%. Moreover, the AC50 under setting [2] is 9.2 µM [rising, partial curve, poor fit].
As for `CC(C)(C)C1CCC(OC(=O)CCC(=O)Nc2ccccc2)CC1` (stereo not drawn), the cell number change was -28.6%.
As for `O=C(NCc1cccs1)C1CC(O)CN1C(=O)Nc1ccccc1` (stereo not drawn), the cell number change was -1.67%. Besides, the AC50 under setting [2] is 4.11 µM [rising, partial curve].
On to `CC(=O)Nc1nc(-c2cc([N+](=O)[O-])cs2)cs1`, for which the cell number change was -9.52%. Further, the AC50 under setting [2] was 0.092 µM [rising, single point].
As to `CCc1ccc(CN2CCC(n3nccc3NC(=O)c3ccccc3Cl)CC2)cc1`, the cell number change worked out at 33.7%.
For the compound `NC(=O)CC(NC(=O)c1ccccc1)c1ccc(NCCc2ccc(Cl)cc2)c([N+](=O)[O-])c1` (stereo not drawn), the cell number change came to 3.18%. Also, under setting [2], the AC50 was 2.31 µM [rising, single point].
